# Data from ChEMBL document CHEMBL1781966, “Lead optimization of 4-imidazolylflavans: new promising aromatase inhibitors” (Eur J Med Chem, 2011).
# Values joined by “and” are separate entries in the source; they are usually repeats but may differ in a detail not shown here. Equal entries are not always repeated.
# Biological target: T1, Aromatase (Homo sapiens, UniProt P11511)
# T1 sequence (P11511 whole entry): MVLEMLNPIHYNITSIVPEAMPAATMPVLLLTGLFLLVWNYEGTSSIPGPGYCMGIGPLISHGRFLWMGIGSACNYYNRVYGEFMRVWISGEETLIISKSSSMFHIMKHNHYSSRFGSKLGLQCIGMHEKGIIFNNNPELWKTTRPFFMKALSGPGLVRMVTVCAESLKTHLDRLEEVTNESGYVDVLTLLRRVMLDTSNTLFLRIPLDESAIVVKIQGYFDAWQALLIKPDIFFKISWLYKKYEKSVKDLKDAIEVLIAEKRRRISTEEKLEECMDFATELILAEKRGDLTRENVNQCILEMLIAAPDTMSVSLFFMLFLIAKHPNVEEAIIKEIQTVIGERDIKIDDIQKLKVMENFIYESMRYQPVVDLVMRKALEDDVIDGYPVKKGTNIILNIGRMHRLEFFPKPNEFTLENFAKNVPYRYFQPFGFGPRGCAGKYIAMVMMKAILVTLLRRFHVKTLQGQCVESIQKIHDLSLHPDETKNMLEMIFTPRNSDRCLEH
# Experiment: Inhibition of aromatase in human placental microsomes assessed as inhibition of aromatization of [1,2,6,7-3H] androstenedione by flow scintillation analysis
# Design: species or system Placenta
compound,measurement,value
COc1ccc2c(c1)OC(c1ccccc1)CC2n1ccnc1 (stereo unspecified),IC50,60 nM and 600 nM
